Source: publication PMC7182230
Results are given in words; binding and its absence hold for the method and conditions named. Binding seen in cells or lysates may run through a third protein. Some results given as binding are weak or reduced against the parent protein; the word gives no strength.

The chains behind the UniProt entries cited, without tags or fusion partners. Where a name states a change or a piece, a line headed by the entry shows the natural chain unless it says otherwise. Residues count along the entry.
UniProt Q08345: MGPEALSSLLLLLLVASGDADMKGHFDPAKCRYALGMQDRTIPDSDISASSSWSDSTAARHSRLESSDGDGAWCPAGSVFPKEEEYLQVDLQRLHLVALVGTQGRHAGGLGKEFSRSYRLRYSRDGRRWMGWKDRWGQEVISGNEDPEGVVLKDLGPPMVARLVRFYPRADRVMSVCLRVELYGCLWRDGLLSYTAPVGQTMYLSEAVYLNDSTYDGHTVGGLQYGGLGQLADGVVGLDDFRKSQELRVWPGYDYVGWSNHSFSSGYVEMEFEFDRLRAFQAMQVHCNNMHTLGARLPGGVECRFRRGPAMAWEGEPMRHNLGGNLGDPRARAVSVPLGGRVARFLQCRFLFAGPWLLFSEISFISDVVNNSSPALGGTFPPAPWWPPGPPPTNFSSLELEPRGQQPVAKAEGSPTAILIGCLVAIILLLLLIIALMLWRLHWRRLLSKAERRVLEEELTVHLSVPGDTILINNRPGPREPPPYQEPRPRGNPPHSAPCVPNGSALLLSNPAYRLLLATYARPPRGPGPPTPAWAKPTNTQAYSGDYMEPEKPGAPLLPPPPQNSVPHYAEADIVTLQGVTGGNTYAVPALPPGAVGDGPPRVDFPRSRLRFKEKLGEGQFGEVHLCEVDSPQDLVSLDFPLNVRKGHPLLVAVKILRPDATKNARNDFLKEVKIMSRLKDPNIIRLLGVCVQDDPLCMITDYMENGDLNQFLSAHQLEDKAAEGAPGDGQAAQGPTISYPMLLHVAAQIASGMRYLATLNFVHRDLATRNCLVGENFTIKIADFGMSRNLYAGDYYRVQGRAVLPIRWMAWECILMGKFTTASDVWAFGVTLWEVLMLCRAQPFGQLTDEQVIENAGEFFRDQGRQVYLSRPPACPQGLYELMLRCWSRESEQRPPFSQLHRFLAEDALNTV
DDR1-Fc fusion protein: residues 21-417 of Q08345

T1: discoidin domain receptor 2 (DDR2) in C28/I2 cells (human (endogenous in C28/I2)) (UniProt Q16832)
T1 sequence: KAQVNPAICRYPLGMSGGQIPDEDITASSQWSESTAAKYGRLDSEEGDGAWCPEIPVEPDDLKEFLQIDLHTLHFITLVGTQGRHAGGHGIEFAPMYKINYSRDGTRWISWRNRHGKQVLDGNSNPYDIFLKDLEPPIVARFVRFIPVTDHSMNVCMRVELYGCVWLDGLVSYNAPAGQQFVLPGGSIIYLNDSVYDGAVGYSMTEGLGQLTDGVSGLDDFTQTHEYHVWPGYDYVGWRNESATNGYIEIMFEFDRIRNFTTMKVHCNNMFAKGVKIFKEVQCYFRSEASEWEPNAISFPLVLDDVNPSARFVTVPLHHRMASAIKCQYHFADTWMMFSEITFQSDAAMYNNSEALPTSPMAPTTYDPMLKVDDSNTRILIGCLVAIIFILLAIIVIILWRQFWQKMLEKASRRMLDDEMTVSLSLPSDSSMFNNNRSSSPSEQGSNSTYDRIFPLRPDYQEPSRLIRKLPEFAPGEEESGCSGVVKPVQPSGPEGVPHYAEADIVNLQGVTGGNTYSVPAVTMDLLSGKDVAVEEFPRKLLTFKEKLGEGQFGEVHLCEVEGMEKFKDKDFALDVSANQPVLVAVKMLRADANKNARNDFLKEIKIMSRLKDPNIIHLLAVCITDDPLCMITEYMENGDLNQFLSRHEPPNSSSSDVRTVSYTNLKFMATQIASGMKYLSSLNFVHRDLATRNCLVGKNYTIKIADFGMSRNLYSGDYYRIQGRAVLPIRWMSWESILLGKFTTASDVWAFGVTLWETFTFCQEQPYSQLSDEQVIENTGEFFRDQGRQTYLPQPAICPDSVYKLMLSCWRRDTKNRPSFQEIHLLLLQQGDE


What was measured:
[1] = molecular target: discoidin domain receptor-1 (DDR1), endogenous in primary human OA chondrocytes (human (endogenous in primary OA chondrocytes)) (UniProt Q08345); experiment: co-IP; primary human OA chondrocytes, endogenous proteins; immunoprecipitation with anti-Postn and anti-DDR1 antibodies, Western blot
[2] = molecular target: DDR1-Fc fusion protein (human) (UniProt Q08345); experiment: co-IP; C28/I2 cells transfected with DDR1-Fc and human Postn cDNA, lysed in RIPA buffer after 24-48 h; 1 mg extract with Protein A & G Sepharose and anti-Postn, anti-DDR1 or control IgG for 24 h at 4 C; Western blot
[3] = molecular target: T1, discoidin domain receptor 2 (DDR2) in C28/I2 cells (human (endogenous in C28/I2)); experiment: as above

Row | binding [1] | binding [2] | binding [3] | Binder
1 | binds | – | – | periostin (Postn), endogenous in primary human OA chondrocytes (protein, UniProt Q15063 22-836) NNHYDKILAHSRIRGRDQGPNVCALQQILGTKKKYFSTCKNWYKKSICGQKTTVLYECCPGYMRMEGMKGCPAVLPIDHVYGTLGIVGATTTQRYSDASKLREEIEGKGSFTYFAPSNEAWDNLDSDIRRGLESNVNVELLNALHSHMINKRMLTKDLKNGMIIPSMYNNLGLFINHYPNGVVTVNCARIIHGNQIATNGVVHVIDRVLTQIGTSIQDFIEAEDDLSSFRAAAITSDILEALGRDGHFTLFAPTNEAFEKLPRGVLERIMGDKVASEALMKYHILNTLQCSESIMGGAVFETLEGNTIEIGCDGDSITVNGIKMVNKKDIVTNNGVIHLIDQVLIPDSAKQVIELAGKQQTTFTDLVAQLGLASALRPDGEYTLLAPVNNAFSDDTLSMDQRLLKLILQNHILKVKVGLNELYNGQILETIGGKQLRVFVYRTAVCIENSCMEKGSKQGRNGAIHIFREIIKPAEKSLHEKLKQDKRFSTFLSLLEAADLKELLTQPGDWTLFVPTNDAFKGMTSEEKEILIRDKNALQNIILYHLTPGVFIGKGFEPGVTNILKTTQGSKIFLKEVNDTLLVNELKSKESDIMTTNGVIHVVDKLLYPADTPVGNDQLLEILNKLIKYIQIKFVRGSTFKEIPVTVYTTKIITKVVEPKIKVIEGSLQPIIKTEGPTLTKVKIEGEPEFRLIKEGETITEVIHGEPIIKKYTKIIDGVPVEITEKETREERIITGPEIKYTRISTGGGETEETLKKLLQEEVTKVTKFIEGGDGHLFEDEEIKRLLQGDTPVRKLQANKKVQGSRRRLREGRSQ
2 | – | binds | no binding | human periostin (Postn), full-length cDNA transfected into C28/I2 cells (protein, UniProt Q15063 22-836) NNHYDKILAHSRIRGRDQGPNVCALQQILGTKKKYFSTCKNWYKKSICGQKTTVLYECCPGYMRMEGMKGCPAVLPIDHVYGTLGIVGATTTQRYSDASKLREEIEGKGSFTYFAPSNEAWDNLDSDIRRGLESNVNVELLNALHSHMINKRMLTKDLKNGMIIPSMYNNLGLFINHYPNGVVTVNCARIIHGNQIATNGVVHVIDRVLTQIGTSIQDFIEAEDDLSSFRAAAITSDILEALGRDGHFTLFAPTNEAFEKLPRGVLERIMGDKVASEALMKYHILNTLQCSESIMGGAVFETLEGNTIEIGCDGDSITVNGIKMVNKKDIVTNNGVIHLIDQVLIPDSAKQVIELAGKQQTTFTDLVAQLGLASALRPDGEYTLLAPVNNAFSDDTLSMDQRLLKLILQNHILKVKVGLNELYNGQILETIGGKQLRVFVYRTAVCIENSCMEKGSKQGRNGAIHIFREIIKPAEKSLHEKLKQDKRFSTFLSLLEAADLKELLTQPGDWTLFVPTNDAFKGMTSEEKEILIRDKNALQNIILYHLTPGVFIGKGFEPGVTNILKTTQGSKIFLKEVNDTLLVNELKSKESDIMTTNGVIHVVDKLLYPADTPVGNDQLLEILNKLIKYIQIKFVRGSTFKEIPVTVYTTKIITKVVEPKIKVIEGSLQPIIKTEGPTLTKVKIEGEPEFRLIKEGETITEVIHGEPIIKKYTKIIDGVPVEITEKETREERIITGPEIKYTRISTGGGETEETLKKLLQEEVTKVTKFIEGGDGHLFEDEEIKRLLQGDTPVRKLQANKKVQGSRRRLREGRSQ
